Experimental data published in publication PMC4948772.
These are yes or no findings as the source states them, for the method shown. Some results given as binding are weak or reduced against the parent protein; the word gives no strength.

By UniProt entry, the sequences of proteins in these tests, tags left out.
UniProt P16371: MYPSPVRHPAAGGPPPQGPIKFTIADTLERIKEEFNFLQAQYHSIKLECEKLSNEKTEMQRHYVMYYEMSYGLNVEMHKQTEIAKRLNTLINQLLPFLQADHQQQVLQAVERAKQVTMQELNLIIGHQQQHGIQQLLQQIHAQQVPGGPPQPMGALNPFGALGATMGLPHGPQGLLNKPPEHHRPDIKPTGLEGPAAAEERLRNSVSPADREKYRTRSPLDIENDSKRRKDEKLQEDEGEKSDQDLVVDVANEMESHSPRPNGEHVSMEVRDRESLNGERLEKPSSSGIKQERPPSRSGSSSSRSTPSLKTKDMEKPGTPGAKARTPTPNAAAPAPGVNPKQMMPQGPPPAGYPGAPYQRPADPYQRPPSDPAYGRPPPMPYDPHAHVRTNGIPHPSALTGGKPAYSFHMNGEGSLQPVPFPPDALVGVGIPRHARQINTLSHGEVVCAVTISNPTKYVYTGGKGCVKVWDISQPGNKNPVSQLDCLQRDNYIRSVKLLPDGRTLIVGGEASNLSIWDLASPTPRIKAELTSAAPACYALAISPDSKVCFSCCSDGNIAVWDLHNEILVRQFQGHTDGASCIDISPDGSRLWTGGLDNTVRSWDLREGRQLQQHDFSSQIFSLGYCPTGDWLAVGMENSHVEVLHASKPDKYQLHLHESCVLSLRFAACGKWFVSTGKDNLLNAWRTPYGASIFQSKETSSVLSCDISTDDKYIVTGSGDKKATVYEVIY

B1: M8-S151A+S159D (protein, UniProt P13098 1-179)
chain: MEYTTKTQIYQKVKKPMLERQRRARMNKCLDNLKTLVAELRGDDGILRMDKAEMLESAVIFMRQQKTPKKVAQEEQSLPLDSFKNGYMNAVNEVSRVMASTPGMSVDLGKSVMTHLGRVYKNLQQFHEAQSAADFIQNSMDCSSMDKAPLAPASSGYHDDCDSPAPSPQPMQQPLWRPW
B2: M8-S151D (protein, UniProt P13098 1-179)
chain: MEYTTKTQIYQKVKKPMLERQRRARMNKCLDNLKTLVAELRGDDGILRMDKAEMLESAVIFMRQQKTPKKVAQEEQSLPLDSFKNGYMNAVNEVSRVMASTPGMSVDLGKSVMTHLGRVYKNLQQFHEAQSAADFIQNSMDCSSMDKAPLDPASSGYHSDCDSPAPSPQPMQQPLWRPW
B3: M8-S151D+S159D (protein, UniProt P13098 1-179)
chain: MEYTTKTQIYQKVKKPMLERQRRARMNKCLDNLKTLVAELRGDDGILRMDKAEMLESAVIFMRQQKTPKKVAQEEQSLPLDSFKNGYMNAVNEVSRVMASTPGMSVDLGKSVMTHLGRVYKNLQQFHEAQSAADFIQNSMDCSSMDKAPLDPASSGYHDDCDSPAPSPQPMQQPLWRPW

What follows are binders tested against Groucho (Drosophila) (UniProt P16371) (assay: two-hybrid; LexA-based yeast interaction trap; bait fused to the DNA-binding domain of LexA, prey to the activation domain of B42; yeast strain EGY048p; which protein was bait is not stated).

binding, binds:
B1
B2
B3
